In one assay the target is T1, FLAG-tagged Aurora-A (UniProt O14965).
T1 sequence: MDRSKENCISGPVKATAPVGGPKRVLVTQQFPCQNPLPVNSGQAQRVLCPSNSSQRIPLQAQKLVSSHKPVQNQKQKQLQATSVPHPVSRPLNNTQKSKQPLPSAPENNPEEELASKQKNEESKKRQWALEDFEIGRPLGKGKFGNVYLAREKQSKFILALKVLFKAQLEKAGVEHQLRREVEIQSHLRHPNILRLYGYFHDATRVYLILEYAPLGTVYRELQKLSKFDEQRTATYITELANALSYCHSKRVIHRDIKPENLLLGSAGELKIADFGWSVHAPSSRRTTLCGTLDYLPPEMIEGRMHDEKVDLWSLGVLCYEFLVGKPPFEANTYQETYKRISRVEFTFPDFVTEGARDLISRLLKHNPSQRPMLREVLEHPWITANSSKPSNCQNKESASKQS
Nature of the assay: co-IP; FLAG-tagged Aurora-A (WT or KD) co-expressed with HA-tagged LDHA/B in 293T cells; anti-Flag M2-agarose 2 h at 4 °C, WB; also with MLN8237.

Assay [1] has as its target T2, FLAG-tagged kinase-dead Aurora-A (D274A) (UniProt O14965).
T2 sequence: T1 sequence with D274A
The description is as above.

For assay [2], the target named is T3, mRuby2-Aurora-A (UniProt O14965).
T3 sequence: T1 sequence
Nature of the assay: FRET or BRET; DLD1 cells transfected with Clover-LDH and mRuby2-Aurora-A, 200 μM CoCl2 for 10 h, fixed with 4% PFA; signal in the cytoplasm.

The target in assay [3] is T3, mRuby2-Aurora-A. Nature of the assay: FRET or BRET; as a6, mitotic cells expressing Clover-LDHB and mRuby-Aurora-A.

Where a chain is given by its changes, count along the chain named. No constants are given. Whether binding was seen depends on the method and setting. In cells and extracts the contact can be indirect. Some binding calls cover weakened binding; strength is not graded here. For some of these results: Tags and fused reporters may be left off the sequences shown.

Our source for the binding values is publication PMC6895051.

Regarding “HA-tagged LDHB (from UniProt P07195 2-334) (enzyme)”, the binding result (in the assay with FLAG-tagged Aurora-A; in assay [1]) was “binds” in each case.

For “Clover-LDHB (from UniProt P07195 2-334) (enzyme)”, the binding result with mRuby2-Aurora-A [2] is on record as “binds”; with mRuby2-Aurora-A [3], “no binding (condition: in mitotic cells)”.
